Values quoted from earlier work, collected in US9370574B2, “Composite absorbable/biodegradable rings for controlled drug delivery” (Poly-Med, Inc., priority 2003, dated 2016).
At least one structure is not confirmed: it was looked up by name or label, or the drawing left a doubt.

Test system: bacterial vaginosis
Conditions: 2% cream daily for seven days, non-pregnant women; one week and one month after treatment

CCC[C@@H]1C[C@@H](C(=O)N[C@@H]([C@H]2O[C@H](SC)[C@H](O)[C@@H](O)[C@H]2O)[C@H](C)Cl)N(C)C1 [clindamycin]
resolution of bacterial vaginosis: 94%
